These are yes or no findings as the source states them, for the method shown. In cells and extracts the contact can be indirect. Some entries that bind do so weakly or less than the wild type.
Biological target: BECN1 (human (endogenous in MCF-7)) (UniProt Q14457)
Test: co-IP; total protein of MCF-7 cells (300 ug), precipitated with antibodies to BECN1 (1:30) or BCL-2 (1:50) and protein A agarose at 4°C, Western blot; cells under normoxia, hypoxia (1% oxygen), or hypoxia with sh-BNIP3

By UniProt entry, the sequences of proteins in these tests, tags left out.
UniProt Q14457: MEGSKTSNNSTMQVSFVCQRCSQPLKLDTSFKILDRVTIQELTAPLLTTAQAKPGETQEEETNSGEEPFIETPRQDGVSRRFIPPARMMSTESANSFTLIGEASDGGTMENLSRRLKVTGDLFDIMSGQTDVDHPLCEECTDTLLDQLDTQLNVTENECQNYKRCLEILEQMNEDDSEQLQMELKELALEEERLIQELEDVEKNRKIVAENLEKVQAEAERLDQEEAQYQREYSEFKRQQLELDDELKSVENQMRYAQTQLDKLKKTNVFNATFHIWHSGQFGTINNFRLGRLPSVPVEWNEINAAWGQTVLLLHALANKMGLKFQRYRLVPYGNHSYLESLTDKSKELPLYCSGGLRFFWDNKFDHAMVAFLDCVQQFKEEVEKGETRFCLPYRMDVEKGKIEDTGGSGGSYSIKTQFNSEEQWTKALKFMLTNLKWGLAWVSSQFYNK
UniProt P10415: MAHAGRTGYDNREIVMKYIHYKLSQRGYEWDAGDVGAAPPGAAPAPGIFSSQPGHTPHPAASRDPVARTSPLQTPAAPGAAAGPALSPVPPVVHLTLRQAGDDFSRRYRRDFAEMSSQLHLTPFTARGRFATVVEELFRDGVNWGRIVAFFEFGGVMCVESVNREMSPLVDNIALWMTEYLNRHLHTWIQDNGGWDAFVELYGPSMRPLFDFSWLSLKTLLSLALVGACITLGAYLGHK

Substance: B-cell lymphoma-2 (BCL-2) (from UniProt P10415 1-239)
- binding: binds

Reference: PMC8973668
